US20110020344A1 (US Dept. of Health and Human Services, published 2011)
No constants are given. Whether binding was seen depends on the method and setting. Some results given as binding are weak or reduced against the parent protein; the word gives no strength.

Tests used:
Soluble CD22 (PeproTech) = biological target: T1, Soluble CD22 (PeproTech) (human, UniProt P20273 20-687, limits assumed); assay: ELISA on coated soluble CD22
T1 construct: Bought from PeproTech; also called sCD22; soluble CD22 purified from mammalian cells
T1 sequence: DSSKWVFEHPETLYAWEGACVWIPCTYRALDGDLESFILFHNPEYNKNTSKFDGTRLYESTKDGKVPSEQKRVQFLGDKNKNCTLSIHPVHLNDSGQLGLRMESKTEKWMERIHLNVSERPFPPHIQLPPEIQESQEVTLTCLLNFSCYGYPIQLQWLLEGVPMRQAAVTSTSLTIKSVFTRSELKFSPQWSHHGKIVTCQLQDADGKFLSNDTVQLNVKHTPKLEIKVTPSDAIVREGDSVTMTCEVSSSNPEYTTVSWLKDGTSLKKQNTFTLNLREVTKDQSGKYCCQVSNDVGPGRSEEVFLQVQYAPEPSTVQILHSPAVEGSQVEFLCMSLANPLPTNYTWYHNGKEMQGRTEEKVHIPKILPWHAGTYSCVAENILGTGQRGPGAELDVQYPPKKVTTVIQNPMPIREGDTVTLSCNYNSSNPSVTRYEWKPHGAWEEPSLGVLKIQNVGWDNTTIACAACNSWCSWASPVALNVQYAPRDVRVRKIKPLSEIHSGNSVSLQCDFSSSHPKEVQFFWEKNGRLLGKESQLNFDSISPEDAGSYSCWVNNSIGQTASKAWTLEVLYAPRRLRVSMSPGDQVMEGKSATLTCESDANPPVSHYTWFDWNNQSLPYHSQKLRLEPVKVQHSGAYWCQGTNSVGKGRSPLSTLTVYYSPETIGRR

[1] = biological target: CD22 region including domains 5 to 7 (human) (UniProt P20273); assay: ELISA: coated antibody captures Myc/His tagged CD22 fragments, anti-Myc-HRP detection

B1: Fab m972 (Fab, V domains shown)
VH: EVQLVQSGGGVVRPGGSLRLPCAASGFTFDDYGMSWVRQAPGKGLEWVSGINWNGGSTGYADSVKGRFTISRDNAKNSLYLQMNSLRAEDTALYHCARGGDDAFDIWGQGTMVTVSS
VL: RIVMTQSPGTLSVSPGETATLSCRASQSFSNMLAWYQQKSGQPPRLLIYGVSTRAAGVPARFSGSGSGTEFTLTISNLQSEDFAVYYCQQYGDWPRYTFGQGTKVERKR
notes: Human Fab from a naive Fab phage library, expressed in E. coli HB2151; also called m972 Fab
For B1, the binding (Soluble CD22 (PeproTech)) was “binds” and the binding [1] was “binds”.
